According to PMC5352890:
No constants are given. Whether binding was seen depends on the method and setting. For some of these results: In cells and extracts the contact can be indirect. Some binding calls cover weakened binding; strength is not graded here. For some of these results: Where a sequence is shown, tags or fusion partners need not be part of it. One block for each molecule: values may come before it.

Legend:
Myc-tagged BAG5 (human) = target: T1, Myc-tagged BAG5 (human) (UniProt Q9UL15); experiment: co-IP; HEK293 cells cotransfected with DJ-1-eGFP and BAG5-Myc; IP with anti-GFP polyclonal antibody or, conversely, anti-Myc antibody (#2272); IP buffer PBS with 1% Triton X-100; Western blot
T1 sequence: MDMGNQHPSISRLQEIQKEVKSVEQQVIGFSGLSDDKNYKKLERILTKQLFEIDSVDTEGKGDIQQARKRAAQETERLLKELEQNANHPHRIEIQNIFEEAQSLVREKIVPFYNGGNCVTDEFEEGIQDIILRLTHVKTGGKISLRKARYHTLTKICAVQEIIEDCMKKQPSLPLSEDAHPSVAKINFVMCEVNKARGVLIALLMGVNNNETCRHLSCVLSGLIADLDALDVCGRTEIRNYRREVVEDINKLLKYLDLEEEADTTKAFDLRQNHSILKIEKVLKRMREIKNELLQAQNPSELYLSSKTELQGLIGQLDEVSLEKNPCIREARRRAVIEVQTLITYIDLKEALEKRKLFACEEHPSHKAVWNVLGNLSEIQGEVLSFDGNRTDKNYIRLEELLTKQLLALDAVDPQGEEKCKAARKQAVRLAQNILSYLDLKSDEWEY

[1] = target: T2, DJ-1-flag (human), Q99497; experiment: Western blot of dimer and monomer bands; mitochondria isolated from HEK293 cells stably expressing DJ-1-flag alone or with BAG5-Myc; levels of dimer and monomer by Western blot; settings: remark: other sources report otherwise
T2 chain: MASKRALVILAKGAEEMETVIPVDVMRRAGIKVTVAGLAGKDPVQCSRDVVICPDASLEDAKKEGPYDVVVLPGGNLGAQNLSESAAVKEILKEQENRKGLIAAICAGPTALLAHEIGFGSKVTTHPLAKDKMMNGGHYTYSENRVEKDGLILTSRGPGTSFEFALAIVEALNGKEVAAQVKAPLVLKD

GFP-tagged DJ-1 (human) = GFP-tagged DJ-1 (human) (UniProt Q99497); experiment: co-IP; HEK293 cells cotransfected with DJ-1-eGFP and BAG5-Myc; IP with anti-GFP polyclonal antibody or, conversely, anti-Myc antibody (#2272); IP buffer PBS with 1% Triton X-100; Western blot
[2] = target: endogenous DJ-1 (human (endogenous in HEK293)) (UniProt Q99497); experiment: co-IP; endogenous proteins of HEK293 cells, with or without rotenone; IP with DJ-1 antibody (#5933); blot with anti-DJ-1 (ab11251) and anti-BAG5 (ab56738)

binding (Myc-tagged BAG5 (human)): binds
Molecule: GFP-tagged DJ-1 (from UniProt Q99497 1-189)

binding [1]: binds
B1: DJ-1-flag, Q99497 1-189 (protein)
chain: T2 chain

binding (GFP-tagged DJ-1 (human)): binds
B2: Myc-tagged BAG5 (protein, UniProt Q9UL15 1-447)
chain: T1 sequence

binding [2]: binds
B3: endogenous BAG5 protein (protein, UniProt Q9UL15 1-447)
chain: T1 sequence
